From patent US9725423B2, “Tetrazolinone compound and applications thereof” (SUMITOMO CHEMICAL COMPANY, LIMITED, priority 2012, dated 2017)
Some entries share one result that the patent states for a list of compounds.

How the values were obtained:
Format in all cases: in vivo
[1] = system: wheat leaf blotch fungus (Septoria tritici); experiment: Wheat leaf blotch control test, foliar spray on wheat (Test Examples 5, 11); conditions: wheat (APOGEE), inoculated four days after spraying
[2] = system: barley net blotch fungus (Pyrenophora teres); experiment: Barley net blotch control test, foliar spray on barley (Test Examples 3, 9); conditions: barley (MIKAMO GOLDEN), inoculated two days after spraying
[3] = system: cucumber powdery mildew fungus (Sphaerotheca fuliginea); experiment: Cucumber powdery mildew control test, foliar spray on cucumber (Test Examples 6, 12, Comparative Test Example); conditions: cucumber (SAGAMI HANJIRO), 8 days after inoculation
[4] = system: barley scald fungus (Rhynchosporium secalis); experiment: Barley scald control test, foliar spray on barley (Test Example 14); conditions: 200 ppm, barley (MIKAMO GOLDEN), inoculated two days after spraying

SMILES | area of lesion spots relative to that on an untreated plant ([1]; 500 ppm) [%] | area of lesion spots relative to that on an untreated plant ([2]; 500 ppm) [%] | area of lesion spots relative to that on an untreated plant ([3]; 500 ppm) [%] | also measured
CC(=NOCc1c(Cl)cccc1-n1nnn(C)c1=O)c1ccc2c(c1)OCO2 [present compound 3, 1-[2-(1-benzo[1,3]dioxan-5-yl-ethylideneaminooxymethyl)-3-chlorophenyl]-4-methyl-1,4-dihydrotetrazol-5-one] | – | – | – | area of lesion spots relative to that on an untreated plant ([1]; 200 ppm): ≤ 30%; area of lesion spots relative to that on an untreated plant ([2]; 200 ppm): ≤ 30%
CC(=NOCc1c(Cl)cccc1-n1nnn(C)c1=O)c1ccc2ccccc2c1 [present compound 15, 1-{3-chloro-2-[1-(naphthalen-2-yl)ethylideneaminooxymethyl]phenyl}-4-methyl-1,4-dihydrotetrazol-5-one] | ≤ 30 | ≤ 30 | ≤ 30 | –
CC(=NOCc1c(Cl)cccc1-n1nnn(C)c1=O)c1cc(F)cc(F)c1 [present compound 28, 1-{3-chloro-2-[1-(3,5-difluorophenyl)ethylideneaminooxymethyl]phenyl}-4-methyl-1,4-dihydrotetrazol-5-one] | – | ≤ 30 | – | area of lesion spots relative to that on an untreated plant ([1]; 200 ppm): ≤ 30%
COc1cccc(-n2nnn(C)c2=O)c1CON=C(C)c1cccc(Cl)c1 [present compound 41, 1-{3-methoxy-2-[1-(3-chlorophenyl)ethylideneaminooxymethyl]phenyl}-4-methyl-1,4-dihydrotetrazol-5-one] | ≤ 30 | ≤ 30 | – | area of lesion spots relative to that on an untreated plant [4]: ≤ 30%
COc1cccc(-n2nnn(C)c2=O)c1CON=C(C)c1cccc(OC(F)(F)C(F)F)c1 [present compound 43, 1-(3-methoxy-2-{1-[3-(1,1,2,2-tetrafluoroethoxyl)phenyl]ethylideneaminooxymethyl}phenyl)-4-methyl-1,4-dihydrotetrazol-5-one] | – | ≤ 30 | – | area of lesion spots relative to that on an untreated plant ([1]; 200 ppm): ≤ 30%; area of lesion spots relative to that on an untreated plant [4]: ≤ 30%
COc1cccc(-n2nnn(C)c2=O)c1CON=C(C)c1cccc([N+](=O)[O-])c1 [present compound 45, 1-{3-methoxy-2-[1-(3-nitrophenyl)ethylideneaminooxymethyl]phenyl}-4-methyl-1,4-dihydrotetrazol-5-one] | ≤ 30 | ≤ 30 | ≤ 30 | –
CC(=NOCc1c(C2CC2)cccc1-n1nnn(C)c1=O)c1cccc([N+](=O)[O-])c1 [present compound 57, 1-{3-cyclopropyl-2-[1-(3-nitrophenyl)ethylideneaminooxymethyl]phenyl}-4-methyl-1,4-dihydrotetrazol-5-one] | ≤ 30 | ≤ 30 | – | area of lesion spots relative to that on an untreated plant ([3]; 200 ppm): ≤ 30%
CC(=NOCc1c(C2CC2)cccc1-n1nnn(C)c1=O)c1ccc(C(F)(F)F)cc1 [present compound 62, 1-{3-cyclopropyl-2-[1-(4-trifluoromethylphenyl)ethylideneaminooxymethyl]phenyl}-4-methyl-1,4-dihydrotetrazol-5-one] | – | – | ≤ 30 | area of lesion spots relative to that on an untreated plant ([1]; 200 ppm): ≤ 30%; area of lesion spots relative to that on an untreated plant ([2]; 200 ppm): ≤ 30%
CCCCC(=NOCc1c(C)cccc1-n1nnn(C)c1=O)c1cccc(C(F)(F)F)c1 [present compound 80, 1-{3-methyl-2-[1-(3-trifluoromethylphenyl)pentylideneaminooxymethyl]phenyl}-4-methyl-1,4-dihydrotetrazol-5-one] | – | ≤ 30 | – | –
Cc1cccc(-n2nnn(C)c2=O)c1CON=C(CC(C)C)c1cccc(C(F)(F)F)c1 [present compound 82, 1-methyl-4-{3-methyl-2-[3-methyl-1-(3-trifluoromethylphenyl)butylideneaminooxymethyl]phenyl}-4-methyl-1,4-dihydrotetrazol-5-one] | – | ≤ 30 | – | –
CCC(=NOCc1c(C)cccc1-n1nnn(C)c1=O)c1ccccc1C(F)(F)F [present compound 83, 1-{3-methyl-2-[1-(2-trifluoromethylphenyl)propylideneaminooxymethyl]phenyl}-4-methyl-1,4-dihydrotetrazol-5-one] | – | – | ≤ 30 | –
CC(=NOCc1c(C)cccc1-n1nnn(C)c1=O)c1ccccc1Cl [present compound 98, 1-{3-methyl-2-[1-(2-chlorophenyl)ethylideneaminooxymethyl]-phenyl}-4-methyl-1,4-dihydrotetrazol-5-one] | – | – | – | area of lesion spots relative to that on an untreated plant [4]: ≤ 30%
CCC(=NOCc1c(C2CC2)cccc1-n1nnn(C)c1=O)c1cccc(C(F)(F)F)c1 [present compound 100, 1-{3-cyclopropyl-2-[1-(3-trifluoromethylphenyl)propylideneaminooxymethyl]phenyl}-4-methyl-1,4-dihydrotetrazol-5-one] | ≤ 30 | – | ≤ 30 | –
CCC(=NOCc1c(-n2nnn(C)c2=O)cccc1C(F)(F)F)c1cccc(C(F)(F)F)c1 [present compound 102, 1-methyl-4-{3-trifluoromethyl-2-[1-(3-trifluoromethylphenyl)propylideneaminooxymethyl]phenyl}-1,4-dihydrotetrazol-5-one] | ≤ 30 | – | ≤ 30 | –
CCC(=NOCc1c(Br)cccc1-n1nnn(C)c1=O)c1cccc(C(F)(F)F)c1 [present compound 111, 1-{3-bromo-2-[1-(3-trifluoromethylphenyl)propylideneaminooxymethyl]phenyl}-4-methyl-1,4-dihydrotetrazol-5-one] | ≤ 30 | – | ≤ 30 | –
CCc1cccc(-n2nnn(C)c2=O)c1CON=C(C)c1ccc(OC)c(C(F)(F)F)c1 [present compound 140, 1-{3-ethyl-2-[1-(4-methoxy-3-trifluoromethylphenyl)ethylideneaminooxymethyl]phenyl}-4-methyl-1,4-dihydrotetrazol-5-one] | ≤ 30 | – | – | area of lesion spots relative to that on an untreated plant [4]: ≤ 30%
CC(=NOCc1c(C2CC2)cccc1-n1nnn(C)c1=O)c1cccc2c1CCO2 [present compound 154, 1-{3-cyclopropyl-2-[1-(2,3-dihydrobenzofuran-4-yl)ethylideneaminooxymethyl]phenyl]-4-methyl-1,4-dihydrotetrazol-5-one] | ≤ 30 | ≤ 30 | ≤ 30 | –
CC(=NOCc1c(C)cccc1-n1nnn(C)c1=O)c1ccc(-c2ccccc2)c(C(F)(F)F)c1 [present compound 156, 1-{2-[1-(4-phenyl-3-trifluoromethylphenyl)ethylideneaminooxymethyl]-3-methylphenyl}-4-methyl-1,4-dihydrotetrazol-5-one] | ≤ 30 | ≤ 30 | ≤ 30 | –
CC(=NOCc1c(C)cccc1-n1nnn(C)c1=O)c1cccc2c1OCO2 [present compound 159, 1-[2-(1-benzo[1,3]dioxol-4-ylethylideneaminooxymethyl)-3-methylphenyl]-4-methyl-1,4-dihydrotetrazol-5-one] | – | ≤ 30 | – | area of lesion spots relative to that on an untreated plant ([1]; 200 ppm): ≤ 30%
CON=C(C)C(=O)C(C)=NOCc1c(C)cccc1-n1nnn(C)c1=O [present compound 210, pentane-2,3,4-trione-2-{O-[2-methyl-6-(4-methyl-5-oxo-4,5-dihydrotetrazol-1-yl)benzyl]oxime}-4-(O-methyloxime)] | – | ≤ 30 | – | –
CC(=NOCc1c(C)cccc1-n1nnn(C)c1=O)C1(c2cccc(C(F)(F)F)c2)CC1 [present compound 219, 1-methyl-4-(3-methyl-2-{1-[1-(3-trifluoromethylphenyl)cyclopropyl]ethylideneaminooxymethyl]phenyl}1,4-dihydrotetrazol-5-one] | – | – | – | area of lesion spots relative to that on an untreated plant [4]: ≤ 30%
CCc1cccc(-n2nnn(C)c2=O)c1CON=C(C)c1noc2cc(F)ccc12 [present compound 261, 1-{3-ethyl-2-[1-(6-fluorobenzo[d]isoxazol-3-yl)ethylideneaminooxymethyl]phenyl}-4-methyl-1,4-dihydrotetrazol-5-one] | ≤ 30 | ≤ 30 | ≤ 30 | –
CC(=NOCc1c(Cl)cccc1-n1nnn(C)c1=O)c1noc2cc(F)ccc12 [present compound 263, 1-{3-chloro-2-[1-(6-fluorobenzo[d]isoxazol-3-yl)ethylideneaminooxymethyl]phenyl}-4-methyl-1,4-dihydrotetrazol-5-one] | – | ≤ 30 | ≤ 30 | –
CC(=NOCc1c(C)cccc1-n1nnn(C)c1=O)c1cc(C)n(C)n1 [present compound 264, 1-{2-[1-(1,5-dimethyl-1H-pyrazol-3-yl)ethylideneaminooxymethyl]-3-methylphenyl}-4-methyl-1,4-dihydrotetrazol-5-one] | ≤ 30 | ≤ 30 | – | –
CC(C=Cc1ccsc1)=NOCc1c(C)cccc1-n1nnn(C)c1=O [present compound 265, 1-[2-(5-mercapto-1,4-dimethylpenta-2,4-dienylideneaminooxymethyl)-3-methylphenyl]-4-methyl-1,4-dihydrotetrazol-5-one] | ≤ 30 | ≤ 30 | – | –
